Test results: paper PMC10205858
Results are given in words; binding and its absence hold for the method and conditions named. In cells and extracts the contact can be indirect. Some entries that bind do so weakly or less than the wild type. For part of these data: Tags and fused reporters may be left off the sequences shown. Values belong to the molecule of their own block, whether it stands above or below them.

Chains of the proteins cited; added tags and fusions are not shown. Lines headed by an entry give the natural chain unless they say otherwise; changes in a name come on top.
UniProt Q15672: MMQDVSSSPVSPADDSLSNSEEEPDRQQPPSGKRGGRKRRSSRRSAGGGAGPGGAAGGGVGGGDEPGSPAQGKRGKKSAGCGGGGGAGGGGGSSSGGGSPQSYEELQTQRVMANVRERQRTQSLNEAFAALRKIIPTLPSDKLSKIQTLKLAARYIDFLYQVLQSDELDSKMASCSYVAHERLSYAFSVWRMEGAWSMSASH
UniProt Q8N1E6: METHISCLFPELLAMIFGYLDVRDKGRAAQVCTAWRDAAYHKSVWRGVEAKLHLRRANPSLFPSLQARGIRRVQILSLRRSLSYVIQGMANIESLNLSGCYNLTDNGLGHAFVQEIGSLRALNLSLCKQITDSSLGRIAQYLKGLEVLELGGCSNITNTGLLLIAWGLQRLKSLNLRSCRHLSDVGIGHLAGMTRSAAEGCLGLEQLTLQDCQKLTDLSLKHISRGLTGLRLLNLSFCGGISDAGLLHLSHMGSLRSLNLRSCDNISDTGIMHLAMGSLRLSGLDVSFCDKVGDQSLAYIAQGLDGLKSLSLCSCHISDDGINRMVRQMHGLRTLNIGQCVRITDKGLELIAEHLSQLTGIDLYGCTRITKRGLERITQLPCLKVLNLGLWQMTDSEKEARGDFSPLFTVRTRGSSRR
UniProt Q9Y297: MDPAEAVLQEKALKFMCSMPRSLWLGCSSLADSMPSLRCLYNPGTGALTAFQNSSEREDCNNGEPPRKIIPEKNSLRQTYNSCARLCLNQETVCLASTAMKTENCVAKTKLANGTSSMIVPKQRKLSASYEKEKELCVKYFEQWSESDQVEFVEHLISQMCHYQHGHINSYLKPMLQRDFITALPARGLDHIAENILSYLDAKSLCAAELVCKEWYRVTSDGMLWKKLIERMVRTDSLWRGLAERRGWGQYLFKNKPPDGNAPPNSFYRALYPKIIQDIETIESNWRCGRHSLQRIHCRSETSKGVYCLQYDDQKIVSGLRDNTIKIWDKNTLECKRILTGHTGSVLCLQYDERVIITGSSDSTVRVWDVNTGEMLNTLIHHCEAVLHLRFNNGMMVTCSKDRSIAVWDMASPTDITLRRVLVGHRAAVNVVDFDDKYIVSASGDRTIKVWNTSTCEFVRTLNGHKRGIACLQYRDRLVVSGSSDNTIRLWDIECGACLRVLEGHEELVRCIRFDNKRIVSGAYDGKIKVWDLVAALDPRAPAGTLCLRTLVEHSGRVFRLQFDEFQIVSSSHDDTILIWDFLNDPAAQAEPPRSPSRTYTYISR

Tests used:
GST-USP13 = target: T1, GST-USP13 (UniProt Q92995); test: pull-down; GST pull-down with GST-USP13 or GST as bait; Flag-Twist1 or GFP-Twist1 constructs as prey; details by reference to earlier work; only the target purified
T1 sequence: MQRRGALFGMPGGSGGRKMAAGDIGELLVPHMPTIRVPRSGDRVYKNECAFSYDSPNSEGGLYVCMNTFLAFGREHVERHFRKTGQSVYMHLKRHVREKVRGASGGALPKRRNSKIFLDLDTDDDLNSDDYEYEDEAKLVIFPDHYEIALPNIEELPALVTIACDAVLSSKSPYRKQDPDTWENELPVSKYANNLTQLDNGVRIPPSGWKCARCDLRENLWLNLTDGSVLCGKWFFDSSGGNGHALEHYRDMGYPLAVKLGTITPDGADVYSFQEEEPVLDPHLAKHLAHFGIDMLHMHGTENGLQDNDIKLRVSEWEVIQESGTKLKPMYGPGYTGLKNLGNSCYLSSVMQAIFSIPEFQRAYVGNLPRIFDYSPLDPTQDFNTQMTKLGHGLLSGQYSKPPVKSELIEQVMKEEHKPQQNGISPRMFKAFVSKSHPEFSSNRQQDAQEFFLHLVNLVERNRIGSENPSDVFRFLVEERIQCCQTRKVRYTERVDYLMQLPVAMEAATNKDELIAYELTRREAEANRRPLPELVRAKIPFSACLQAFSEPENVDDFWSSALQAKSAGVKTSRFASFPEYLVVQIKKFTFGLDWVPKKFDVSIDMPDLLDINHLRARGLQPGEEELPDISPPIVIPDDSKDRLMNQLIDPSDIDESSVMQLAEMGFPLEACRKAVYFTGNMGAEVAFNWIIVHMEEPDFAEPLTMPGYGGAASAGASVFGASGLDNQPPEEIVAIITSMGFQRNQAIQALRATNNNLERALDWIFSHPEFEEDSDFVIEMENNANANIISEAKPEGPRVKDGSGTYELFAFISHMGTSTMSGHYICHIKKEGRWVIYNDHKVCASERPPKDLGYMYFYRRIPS

[1] = target: Twist1 (twist family bHLH transcription factor 1), endogenous (human (endogenous in SUM159PT and MDA-MB231)) (UniProt Q15672); test: co-IP; endogenous proteins of SUM159PT cells, 20 μM MG132; immunoprecipitated with anti-Twist1 or anti-FBXL14 antibody; with or without transfected GFP-USP13 or USP13 shRNA
[2] = target: Twist1 (twist family bHLH transcription factor 1), endogenous (human (endogenous in SUM159PT and MDA-MB231)) (UniProt Q15672); test: co-IP; endogenous USP13 and Twist1 each immunoprecipitated from MDA-MB231 and SUM159PT cells; the bound partner detected by Western blotting
Flag-Twist1 [3] = target: Flag-Twist1 (UniProt Q15672); test: co-IP; Flag-Twist1 co-expressed with GFP-USP13 in HEK293T cells; lysates immunoprecipitated with anti-Flag or anti-GFP antibody; Western blotting
Flag-Twist1 [4] = target: Flag-Twist1 (UniProt Q15672); test: co-IP; GFP-USP13 deletion constructs with Twist1; the legend says only detected via Western blotting; cells not named

Molecule: GFP-Twist1 169–202 amino acid fragment (Twist1 WR domain) (from UniProt Q15672 169-202) (domain or fragment)
binding (GST-USP13): binds

Molecule: FBXL14, endogenous (from UniProt Q8N1E6 1-418)
binding [1]: binds

Molecule: β-TrCP1, endogenous (from UniProt Q9Y297 1-605)
binding [1]: binds

B3: RNF8, endogenous (protein, UniProt O76064 1-485)
chain: MGEPGFFVTGDRAGGRSWCLRRVGMSAGWLLLEDGCEVTVGRGFGVTYQLVSKICPLMISRNHCVLKQNPEGQWTIMDNKSLNGVWLNRARLEPLRVYSIHQGDYIQLGVPLENKENAEYEYEVTEEDWETIYPCLSPKNDQMIEKNKELRTKRKFSLDELAGPGAEGPSNLKSKINKVSCESGQPVKSQGKGEVASTPSDNLDPKLTALEPSKTTGAPIYPGFPKVTEVHHEQKASNSSASQRSLQMFKVTMSRILRLKIQMQEKHEAVMNVKKQTQKGNSKKVVQMEQELQDLQSQLCAEQAQQQARVEQLEKTFQEEEQHLQGLEIAQGEKDLKQQLAQALQEHWALMEELNRSKKDFEAIIQAKNKELEQTKEEKEKMQAQKEEVLSHMNDVLENELQCIICSEYFIEAVTLNCAHSFCSYCINEWMKRKIECPICRKDIKSKTYSLVLDNCINKMVNNLSSEVKERRIVLIRERKAKRLF
binding [1]: binds

Second part, the molecule after the results:

binding (GST-USP13): binds
Molecule: Flag-Twist1 (from UniProt Q15672 1-202)

binding (GST-USP13): binds
Molecule: GFP-Twist1, full length (FL) (from UniProt Q15672 1-202)

binding [2]: binds
B1: USP13 (ubiquitin specific peptidase 13), endogenous (enzyme, UniProt Q92995 1-863)
chain: T1 sequence

binding (Flag-Twist1 [3]): binds
B2: GFP-USP13 (enzyme, UniProt Q92995 1-863)
chain: T1 sequence

binding (Flag-Twist1 [4]): binds
B4: GFP-USP13 (625–863) (domain or fragment, UniProt Q92995 625-863)
chain: ELPDISPPIVIPDDSKDRLMNQLIDPSDIDESSVMQLAEMGFPLEACRKAVYFTGNMGAEVAFNWIIVHMEEPDFAEPLTMPGYGGAASAGASVFGASGLDNQPPEEIVAIITSMGFQRNQAIQALRATNNNLERALDWIFSHPEFEEDSDFVIEMENNANANIISEAKPEGPRVKDGSGTYELFAFISHMGTSTMSGHYICHIKKEGRWVIYNDHKVCASERPPKDLGYMYFYRRIPS
